According to patent US20160015828A1 (AbbVie / Abbott, published 2016):
Results are given in words; binding and its absence hold for the method and conditions named. Some entries that bind do so weakly or less than the wild type.

By UniProt entry, the sequences of proteins in these tests, tags left out. Residues count along the entry.
UniProt O88516, residues 33-592: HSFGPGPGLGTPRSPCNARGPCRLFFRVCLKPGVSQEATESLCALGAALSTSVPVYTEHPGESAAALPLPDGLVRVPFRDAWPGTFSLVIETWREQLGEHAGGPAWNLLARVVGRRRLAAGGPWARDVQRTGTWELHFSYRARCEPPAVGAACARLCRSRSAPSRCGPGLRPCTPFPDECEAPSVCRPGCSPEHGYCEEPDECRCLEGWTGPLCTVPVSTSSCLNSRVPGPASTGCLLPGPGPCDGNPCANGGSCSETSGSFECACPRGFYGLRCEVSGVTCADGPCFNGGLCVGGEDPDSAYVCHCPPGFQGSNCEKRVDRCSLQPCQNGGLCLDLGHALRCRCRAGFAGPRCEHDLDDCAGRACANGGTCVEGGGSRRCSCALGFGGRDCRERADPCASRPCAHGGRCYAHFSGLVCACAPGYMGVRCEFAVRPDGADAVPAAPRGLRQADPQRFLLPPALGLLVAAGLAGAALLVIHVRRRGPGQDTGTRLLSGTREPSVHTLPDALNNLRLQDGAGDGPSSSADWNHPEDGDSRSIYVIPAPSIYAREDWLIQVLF

T1: human DLL3 (UniProt Q9NYJ7 27-492)
T1 chain: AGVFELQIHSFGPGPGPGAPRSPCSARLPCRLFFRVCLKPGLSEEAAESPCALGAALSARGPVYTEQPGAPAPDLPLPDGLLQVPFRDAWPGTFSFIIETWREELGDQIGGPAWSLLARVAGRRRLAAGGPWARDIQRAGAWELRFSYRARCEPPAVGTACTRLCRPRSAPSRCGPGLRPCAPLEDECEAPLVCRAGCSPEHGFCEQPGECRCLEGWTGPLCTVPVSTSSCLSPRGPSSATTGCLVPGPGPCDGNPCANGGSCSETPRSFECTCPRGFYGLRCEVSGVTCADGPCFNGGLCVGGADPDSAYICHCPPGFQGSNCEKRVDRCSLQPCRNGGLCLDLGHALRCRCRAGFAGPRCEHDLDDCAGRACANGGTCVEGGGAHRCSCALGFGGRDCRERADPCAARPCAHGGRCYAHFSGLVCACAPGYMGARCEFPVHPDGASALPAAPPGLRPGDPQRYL


How the values were obtained:
human DLL3 [1] = target: T1, human DLL3; test: screening on immobilized DLL3 or 293-hDLL3 cells
DLL3 [2] = target: DLL3 (UniProt Q9NYJ7); test: SPR (Biacore 2000)
[3] = target: murine DLL3 over-expressed on 293 cells (murine) (UniProt O88516); test: flow cytometry, 293 cells over-expressing murine DLL3
DLL3 [4] = target: DLL3 (UniProt Q9NYJ7); test: screening on immobilized DLL3 or 293-hDLL3 cells
human DLL3 [5] = target: T1, human DLL3; test: SPR (Biacore 2000)

binding (human DLL3 [1])	binding (DLL3 [2])	Binder	also measured
binds	–	SC16.103 (antibody, V domains shown) VH: QVTLKESGPGILKPSQTLSLTCSFSGFSLSTSGMGIGWIRQPSGKGLEWLAHIWWDDDKYYNPSLKSQLTISKDSSRNQVFLKITSVDTADTATYYCARRGTAYYFDYWGQGTTLTVSS VL: DIVLTQSPASLAVSLGQRATISCRASKSVSTSGYSYMHWYQQKPGQPPKLLIYLASNLESGVPARFSGSGSGTDFTLNIHPVEEEDAATYYCQHSRELPLTFGAGTKLELK	–
–	binds	hSC16.34 (antibody, human IgG1, kappa, V domains shown) VH: QVQLVQSGAEVKKPGASVKVSCKASGYTFTNYGMNWVRQAPGQRLEWMGWINTYTGDPTYADDFKGRVTITRDTSASTAYMELSSLRSEDTAVYYCARIGGNSPSDYWGQGTTVTVSS VL: DIQMTQSPSSLSASVGDRVTITCKASQSVSNDVAWYQQKPGKVPKLLIYYASNRYSGVPSRFSGSGSGTDFTLTISSLQPEDVATYFCQQDYSSPWTFGGGTKVEIKR	–
–	binds	hSC16.56 (antibody, human IgG1, kappa, V domains shown) VH: QVQLVQSGAEVKKPGASVKVSCKASGYTFTNYGMNWVRQAPGQGLEWMGWINTYTGEPTYADDFKGRVTMTTDTSTSTAYMELRSLRSDDTAVYYCARIGDSSPSDYWGQGTLVTVSS VL: EIVMTQSPATLSVSPGERATLSCKASQSVSNDVVWYQQKPGQAPRLLIYYASNRYTGIPARFSGSGSGTEFTLTISSLQSEDFAVYYCQQDYTSPWTFGQGTKLEIKR	–
binds	–	SC16.105 (antibody, V domains shown) VH: QVQLQQPGAELVKPGASVKLSCKASGYTFTSYWMHWVKQRPGQGLEWIGVINPSNGRTNYNEKFKSKATLTVDKSSSTAYMQLSSLTSEDSAVYYCARRRELGTLYAMDYWGQGTSVTVSS VL: DIVMTQSHKFMSTSVGDRVSITCKASQDVGTAVAWYQQKPGQSPKLLIYWASIRHTGVPDRFTGSGSGTDFTLTISNVQSEDLADYFCQQYSSYPLTFGAGTKLELK	–
–	–	SC16.8 (antibody, V domains shown, murine mAb; V regions only) VH: QAQLQQSGAELVRPGTSVKVSCKASGYAFTNYLIEWVKQRPGQGLEWIGVINPGTGGTNYNENFKGKATLTADKSSSTAYMQLSSLTSDDSAVYFCARSPYDYHEGAMDYWGQGTSVTVSS VL: EIQMTQSPSSMSASLGDRITITCQATQDIVKNLNWYQQKPGKPPSFLIYYAIELAEGVPSRFSGSGSGSDYSLTISNLESEDFADYYCLQFYEFPFTFGAGTKLELK	binding [3]: binds; binding (DLL3 [4]): binds
–	binds	hSC16.13 (antibody, human IgG1, kappa, V domains shown) VH: QITLKESGPTLVKPTQTLTLTCTFSGFSLSTSGMGVGWIRQPPGKALEWLAHIWWDDVKRYSPSLKSRLTITKDTSKNQVVLTMTNMDPVDTATYYCARIVSFDNDVVSAMDYWGQGTLVTVSS VL: DIQMTQSPSSLSASVGDRVTITCSASSSVSYMYWYQQKPGKAPKLLIYLTSNLASGVPSRFSGSGSGTDFTLTISSLQPEDFATYYCQQWRSNPFTFGQGTKLEIKR	–
–	–	hSC16.25 (antibody, human IgG1, kappa, V domains shown) VH: QITLKESGPTLVKPTQTLTLTCTFSGFSLSTSGMGVGWIRQPPGKALEWLTDIWWDDNKYYNPSLKSRLTITKDTSKNQVVLTMTNMDPVDTATYYCARRVNYYYDPYYAMDYWGQGTLVTVSS VL: EIVLTQSPDFQSVTPKEKVTITCSASSSVSYMHWYQQKPDQSPKLLIKDSSKLASGVPSRFSGSGSGTDFTLTINSLEAEDAATYYCQQWSSNPLTFGQGTKLEIKR	binding (human DLL3 [5]): binds
binds	–	SC16.142 (antibody, V domains shown) VH: EVQLQQSGPELVKPGASVKISCKASGYTFTDYNMHWVKQSHGKSLEWIGFFYPYNGNTVYSQKFKSKATLTVDNSSSTAYMELRSLTSEDSAVYYCARLNWEGYWGQGTTLTVSS VL: DIKMTQSPSSMYASLGERVTITCKASQDINNYLSWFQQKPGKSPKTLIYRANRLVDGVPSRFSGSGSGQDYSLTISSLEYEDMGIYYCLQYDEFPYTFGGGTKLEIK	–
binds	–	SC16.31 (antibody, V domains shown) VH: EVQLQQSGPELVKPGASVKISCKASGYSFSRFYMHWVKQSPENSLEWIGEINPSTGGTSYNQKFKGKATLTVDKSSSTAYMQLKSLTSEESAVYYCTRGYGSNWYFDVWGAGTTVTVST VL: DIVLTQSPLSLPVNIGDQASISCKSTKSLLNSDGFTYLDWYLQRPGQSPQFLIYLVSNRFSGVPDRFSGSGSGTDFTLKISRVEAEDLGVYYCFQSNYLPLTFGAGTKLELR	–
–	–	SC16.4 (antibody, V domains shown, murine mAb; V regions only) VH: QIQLVQSGPELKKPGETVKISCKASGYTFTDYSMHWVKQAPGKGLKWMGWINTETGEPGYADDFKGRFAFSLETSASTAYLQINNLKNEDTATYFCARYDGYAMDYWGQGTSVTVSS VL: DIQMTQTTSSLSASLGDRVTISCRASQDISNYLNWYQQKPDGTVKLLIYYTSRLHSGVPSRFSGSGSGTDYSLTISNLELEDIATYFCQQGDMLPWTFGGGTKLEIK	binding [3]: binds; binding (DLL3 [4]): binds
binds	–	SC16.22 (antibody, V domains shown) VH: QVQLQQPGAELVKPGASVKLSCKASGYTFTTYWMHWVKQRPGQGLEWIGEIDPSDSYTYYNQKFKGKATLTVDKSSSTAYMQLSSLTSEDSAVYYCARGDYGNPYAMDYWGQGSSVTVSS VL: DIQMTQTTSSLSASLGDRVTISCRASQDIKNYLNWYQQKPDGTVKPLIYYTSRVHSGVPSRFSGSGSGTDYSLTISNLEQEDIATYFCQQGYTLPFTFGSGTKLEIK	–
binds	–	SC16.136 (antibody, V domains shown) VH: EVQLQQSGPELVKPGASVKMSCKASGYTFTSYVMHWVKQKPGQGLEWIGYINPYNDGTKYNEKFKGKATLTSDKSSSTAYMELSSLTSEDSAVYYCARDRSGYEDYYGMDYWGQGTSVTVSS VL: DIQMTQSPASLSASVGETVTITCRASGNIHNYLAWYQQKQGKSPHLLVYNAKTLADGVPSRFSGSGSGTQYSLKINSLQPEDFGSYYCQHFWSTPWTFGGGTKLEIK	–
–	–	SC16.34 (antibody, V domains shown, murine mAb; V regions only) VH: QIQLVQSGPELKRPGETVKISCKASGYTFTNYGMNWVKQAPGKGLKWMGWINTYTGDPTYADDFKGRFAFSLETSASTAYLQINNLKNEDTATYFCARIGGNSPSDYWGQGTSLTVSS VL: SIVMTQTPKFLLVSAGDRVTITCKASQSVSNDVAWYQQKPGQSPKLLIYYASNRYSGVPDRFTGSGYGTDFTFTISTVQAEDLAVYFCQQDYSSPWTFGGGTKLEIK	binding [3]: binds; binding (DLL3 [4]): binds
–	binds	chimeric SC16.34 (antibody, human IgG1, kappa, V domains shown) VH: QIQLVQSGPELKRPGETVKISCKASGYTFTNYGMNWVKQAPGKGLKWMGWINTYTGDPTYADDFKGRFAFSLETSASTAYLQINNLKNEDTATYFCARIGGNSPSDYWGQGTSLTVSS VL: SIVMTQTPKFLLVSAGDRVTITCKASQSVSNDVAWYQQKPGQSPKLLIYYASNRYSGVPDRFTGSGYGTDFTFTISTVQAEDLAVYFCQQDYSSPWTFGGGTKLEIKR	–
–	binds	chimeric SC16.56 (antibody, human IgG1, kappa, V domains shown) VH: QIQLVQSGPELKKPGETVKISCKASGYTFTNYGMNWVKQAPGKGLKWMAWINTYTGEPTYADDFKGRFAFSLETSASTASLQIINLKNEDTATYFCARIGDSSPSDYWGQGTTLTVSS VL: SIVMTQTPKFLLVSAGDRVTITCKASQSVSNDVVWYQQKPGQSPKLLIYYASNRYTGVPDRFAGSGYGTDFSFTISTVQAEDLAVYFCQQDYTSPWTFGGGTKLEIRR	–
–	–	SC16.56 (antibody, V domains shown, murine mAb; V regions only) VH: QIQLVQSGPELKKPGETVKISCKASGYTFTNYGMNWVKQAPGKGLKWMAWINTYTGEPTYADDFKGRFAFSLETSASTASLQIINLKNEDTATYFCARIGDSSPSDYWGQGTTLTVSS VL: SIVMTQTPKFLLVSAGDRVTITCKASQSVSNDVVWYQQKPGQSPKLLIYYASNRYTGVPDRFAGSGYGTDFSFTISTVQAEDLAVYFCQQDYTSPWTFGGGTKLEIR	binding [3]: binds; binding (DLL3 [4]): binds
–	–	SC16.15 (antibody, V domains shown, murine mAb; V regions only) VH: QVQLQQSGAELAKPGASVKMSCKASGYTFTRYWIHWIKQRPGQGLEWIGYINPTTVYTEFNQNFKDKATLTADKSSTTASMQLSSLTSEDSAVYYCARGGSNFFDYWGQGTTLTVSS VL: DIQMTQSPASLAASVGETVAITCRASENIYYNLAWYQQKQGKSPQLLIYTANSLEDGVPSRFSGSGSGTQYSLKINSMQPEDSATYFCKQAYDVPPTFGGGTKLEIK	binding [3]: binds; binding (DLL3 [4]): binds
–	binds	hSC16.15 (antibody, human IgG1, kappa, V domains shown) VH: QVQLVQSGAEVKKPGASVKVSCKASGYTFTRYWIHWIRQAPGQGLEWMGYINPTTVYTEFNQNFKDRVTMTRDTSTSTVYMELSSLRSEDTAVYYCARGGSNFFDYWGQGTTVTVSS VL: AIQLTQSPSSLSASVGDRVTITCRASENIYYNLAWYQQKPGKAPKLLIYTANSLEDGVPSRFSGSGSGTDFTLTISSLQPEDFATYFCKQAYDVPPTFGGGTKLEIKR	–
–	binds	chimeric SC16.25 (antibody, human IgG1, kappa, V domains shown) VH: QVTLKESGPGILQPSQTLSLTCSFSGFSLSTSGMGVGWIRQPSGEGLEWLTDIWWDDNKYYNPSLKSRLTISKDTSSNQVFLNITSVDTADTATYYCARRVNYYYDPYYAMDYWGQGTSVTVSS VL: QIVLTQSPAIMSASPGEKVTMTCSASSSVSYMHWYQQKSGTSPKRWIYDSSKLASGVPARFSGSGSGTSYSLTISSMEAEDAATYYCQQWSSNPLTFGAGTKLELKR	–
